Experimental data as given in publication PMC6513905.

Amino acid sequences for entries named in this document (tags omitted). A change or cut given only in a name is not applied to a line headed by its entry.
UniProt Q10RP0: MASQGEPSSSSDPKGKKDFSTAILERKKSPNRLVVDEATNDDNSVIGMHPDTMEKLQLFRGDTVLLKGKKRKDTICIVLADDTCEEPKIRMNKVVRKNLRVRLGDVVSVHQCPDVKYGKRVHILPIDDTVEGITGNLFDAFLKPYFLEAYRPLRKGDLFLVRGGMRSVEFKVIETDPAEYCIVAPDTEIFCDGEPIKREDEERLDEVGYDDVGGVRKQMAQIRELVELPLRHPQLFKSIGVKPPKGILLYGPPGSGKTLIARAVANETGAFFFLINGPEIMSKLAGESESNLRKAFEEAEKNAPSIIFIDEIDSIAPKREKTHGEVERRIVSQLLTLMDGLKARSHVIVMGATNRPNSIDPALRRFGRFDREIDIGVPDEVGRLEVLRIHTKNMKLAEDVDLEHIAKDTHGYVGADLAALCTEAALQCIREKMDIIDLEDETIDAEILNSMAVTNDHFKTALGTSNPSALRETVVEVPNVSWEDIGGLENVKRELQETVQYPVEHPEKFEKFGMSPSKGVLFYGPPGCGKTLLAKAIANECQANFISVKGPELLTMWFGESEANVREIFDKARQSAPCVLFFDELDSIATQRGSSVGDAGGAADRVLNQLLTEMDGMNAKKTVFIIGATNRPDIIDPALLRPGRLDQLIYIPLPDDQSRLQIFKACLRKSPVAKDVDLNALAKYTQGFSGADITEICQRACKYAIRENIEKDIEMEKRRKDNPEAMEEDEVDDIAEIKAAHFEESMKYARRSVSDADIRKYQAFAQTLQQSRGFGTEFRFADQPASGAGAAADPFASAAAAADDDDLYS
UniProt A0A4D6C9S8: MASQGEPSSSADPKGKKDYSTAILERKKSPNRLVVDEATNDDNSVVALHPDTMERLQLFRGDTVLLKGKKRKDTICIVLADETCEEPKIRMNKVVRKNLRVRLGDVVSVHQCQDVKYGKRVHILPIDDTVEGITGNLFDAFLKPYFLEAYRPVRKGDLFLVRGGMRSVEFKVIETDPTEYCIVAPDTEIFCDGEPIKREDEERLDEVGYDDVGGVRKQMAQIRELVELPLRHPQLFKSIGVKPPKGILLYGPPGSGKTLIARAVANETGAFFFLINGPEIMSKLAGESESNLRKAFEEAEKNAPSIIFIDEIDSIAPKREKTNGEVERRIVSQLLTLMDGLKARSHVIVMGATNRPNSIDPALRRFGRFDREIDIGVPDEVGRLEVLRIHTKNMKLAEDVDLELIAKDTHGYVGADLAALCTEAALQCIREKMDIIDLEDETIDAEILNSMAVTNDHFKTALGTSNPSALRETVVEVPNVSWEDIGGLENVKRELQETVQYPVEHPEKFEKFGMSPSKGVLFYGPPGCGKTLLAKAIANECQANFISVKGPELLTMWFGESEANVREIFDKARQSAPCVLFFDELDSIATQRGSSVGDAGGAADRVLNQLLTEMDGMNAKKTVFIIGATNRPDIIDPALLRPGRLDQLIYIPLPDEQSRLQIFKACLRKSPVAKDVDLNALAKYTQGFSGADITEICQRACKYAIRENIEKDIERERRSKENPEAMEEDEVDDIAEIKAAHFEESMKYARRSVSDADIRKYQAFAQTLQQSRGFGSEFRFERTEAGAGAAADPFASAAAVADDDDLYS

Target: GST-CDC48 (rice (Oryza sativa L.)) (UniProt Q10RP0)
Experiment: pull-down; Glutathione magnetic agarose beads with 500 µg of each recombinant protein (GST-tagged and His-tagged) in 600 µL buffer (50 mM Tris-HCl pH 7.5, 5% glycerol, 1 mM EDTA, 1 mM DTT, 1 mM PMSF, 0.01% Nonidet P-40, 150 mM KCl), 4 °C, 2 h; blots with anti-GST and anti-His; both purified

Substance	binding
His-CDC48 (from UniProt Q10RP0)	binds
His-CDC48E (from UniProt A0A4D6C9S8)	binds

Results are given in words; binding and its absence hold for the method and conditions named. A result given as binding can be weak or reduced; the word gives no strength.
